# Measured values from the supplement of paper PMC3334620.
# Whole data set: some 33,000 sequences, median “E-score (-0.5 to 0.5)” near -0.0034, cut for the highest 2% near 0.25. This is one part of the list.
# Molecular target: T1, Yap3 (UniProt P38749)
# T1 sequence: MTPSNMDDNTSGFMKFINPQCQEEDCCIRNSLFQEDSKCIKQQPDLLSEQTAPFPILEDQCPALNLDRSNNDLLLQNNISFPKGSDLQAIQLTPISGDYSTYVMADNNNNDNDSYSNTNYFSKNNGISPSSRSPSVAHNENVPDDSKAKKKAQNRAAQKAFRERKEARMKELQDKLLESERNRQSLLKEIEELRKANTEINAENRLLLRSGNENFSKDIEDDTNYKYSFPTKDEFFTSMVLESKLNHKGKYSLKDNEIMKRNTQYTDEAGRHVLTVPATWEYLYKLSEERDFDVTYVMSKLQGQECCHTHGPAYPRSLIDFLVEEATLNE
# Assay: PBM E-score (8-mer binding enrichment) (E-score (-0.5 to 0.5)); higher = stronger / more preferred TF binding
# Conditions: protein concentration: 100 nM; construct: GST-full length
# How it was run: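 GST-tagged yeast TFs (full-length or DNA-binding domain) were made by PURExpress in vitro transcription/translation and applied at about 100-200 nM to universal all-10-mer Agilent arrays. The arrays were made double-stranded by primer extension, on fresh or once-stripped slides. Bound protein was detected with fluorescent anti-GST, and scans were normalised with masliner. Each ungapped eight-base word, pooled with its reverse complement, received an E-score (modified Wilcoxon-Mann-Whitney statistic) from the Universal PBM Analysis Suite.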
row,Sequence,PBM E-score
1,AACGCATG,0.0274
2,ATACATCG,0.0356
3,ATCCATTA,0.0954
4,AGATTTGC,0.192
5,CGCATCCG,-0.218
6,ACTCCTCA,-0.19
7,AGGTCGTA,0.185
8,AAAACCGC,-0.0529
9,AGTACAGC,-0.0284
10,AGTGCAGA,0.0664
11,AACAAGTT,0.0999
12,AAACTCCA,0.00461
13,ATACAATC,0.146
14,CTCACACC,-0.129
15,ACTACCAG,-0.159
16,AGTCATGG,0.0946
17,CGTGTGGC,-0.132
18,TCTATCAA,0.096
19,GCTATGCC,-0.216
20,CCCTGCTA,-0.155
21,AGAGAATG,0.144
22,AATAAAGT,0.262
23,ACCATGCG,0.0314
24,GGGTCGCA,-0.114
25,ATCGCCAA,-0.0269

# Nothing new here: entries from further up.
row,Sequence,PBM E-score
12,AAACTCCA,0.00461
13,ATACAATC,0.146
14,CTCACACC,-0.129
15,ACTACCAG,-0.159
16,AGTCATGG,0.0946

# Continued.

row,Sequence,PBM E-score
1,GCTCTTGA,0.00079
2,CGCCTATC,0.0395
3,CATTGGTA,0.0377
4,ATGTCCTC,0.0898
5,AAGATGAA,0.0246
6,ACCCCTAT,0.0272
7,AGTATCCA,0.0266
8,ATCAAGAA,0.188
9,CAGTGTGA,0.137
10,CGATGTGC,-0.072
11,CGACCTGC,-0.223
12,GTCAACGA,0.11
13,TAACGCCA,0.082
14,TGATTACA,0.0968
15,AGCTACTG,-0.0662
16,CAACCTCC,-0.073
17,ATGCCTAG,-0.104
18,ACGTAGAG,-0.0452
19,CTGTATGA,-0.0424
20,CACCCTCC,-0.212
21,TAACTACA,0.121
22,CAAAACAC,0.0509
23,CTGCGCAA,0.091
24,CGATCCGA,0.112
25,CCCGACTC,-0.189

row,Sequence,PBM E-score
1,AGTGGAAG,-0.173
2,ATGAACTG,0.188
3,GATTGTTA,0.118
4,CCAGTAGC,0.00327
5,CCTCAGCG,0.0106
6,AACGAGCT,-0.091
7,AAACCTTC,-0.0816
8,TGATACAA,0.107
9,GTGCGTTA,0.0629
10,GATGGCCA,0.0238
11,ACTCCCAC,-0.173
12,CACCCTGA,-0.184
13,GACAGGAA,0.0869
14,ACCATTCT,-0.0214
15,AGTACCAT,0.0515
16,GCTCGCTA,-0.0227
17,AGTGAGAA,0.0772
18,TGGAATAA,0.061
19,ATAGGAGG,-0.179
20,CGACCGTC,-0.182
21,ACAACCGA,0.207
22,ATTATGCC,0.119
23,CAGACATG,-0.0317
24,AGCTACCC,-0.128
25,AAACCTCG,-0.132

row,Sequence,PBM E-score
1,ACAGTCCT,0.00188
2,ATCCTCAC,0.083
3,ATTGAAGA,-0.0376
4,AATTCACT,0.196
5,AGCGCGCG,0.165
6,GAGATTAC,0.173
7,CGCACGGA,0.0293
8,TCGCACCA,-0.0254
9,GCGGCCAC,-0.235
10,CGGTCGCC,-0.2
11,CTACACCC,-0.101
12,ATAAATAT,0.267
13,CTGAGGGC,-0.331
14,CGGTATCC,-0.117
15,ACCACACT,0.043
16,TTACCCAA,0.181
17,CGTGTAAC,-0.00675
18,ATCCCTCC,-0.0937
19,TAGTGCGA,0.00223
20,CCCTCGCG,-0.0461
21,TAGCTTGA,-0.174
22,ATAATTGA,0.308
23,GACGAAGA,0.0634
24,TCCTCGAA,0.014
25,GAAAATTC,0.0254

row,Sequence,PBM E-score
1,ACTTGTAG,-0.0348
2,GACTTAGC,-0.136
3,ACAGTGCC,-0.0154
4,ACCTCGGC,-0.00107
5,CACAATCA,0.133
6,GGATACAC,-0.0394
7,ATCTTGCC,0.036
8,AGACGCAT,-0.0155
9,CCATAAAG,-0.0846
10,ATCCGCAC,0.0909
11,CAGGGGAA,-0.141
12,CGTTCGCC,-0.103
13,TCCCCGGA,-0.0742
14,GAACCGCC,-0.0697
15,CTAGTTTC,0.0462
16,CGTAAGGC,-0.0147
17,ATCTAAAA,0.144
18,CTGATAAC,0.147
19,ACCCGAAT,0.0835
20,AATTTTTC,0.0818
21,CGCACTCC,-0.218
22,TAATACTA,0.367
23,ACTGACTG,-0.144
24,CCTAATGC,-0.155
25,ACGGAGCC,-0.149

# Random excerpt: 2 entries already listed.
row,Sequence,PBM E-score
25,GAAAATTC,0.0254
22,AATAAAGT,0.262

# Additional records.

row,Sequence,PBM E-score
1,AGGCGTAC,-0.186
2,AACGGACA,0.0626
3,AGGCACGG,-0.0528
4,CACACCTG,-0.129
5,ATAATGAG,0.147
6,GCCTACCA,-0.125
7,CTCAGTTC,-0.148
8,GCCGTCTA,-0.0237
9,CATGTTGA,0.255
10,AAGACGTG,-0.0391
11,GCATAGTA,0.137
12,AGATTGAT,-0.0192
13,ATCCCTTA,-0.0465
14,TCTTCAAA,0.0414
15,CCATGCTA,-0.215
16,ATCTGTCG,0.0616
17,GGCGTGCA,-0.177
18,GCTAACAA,0.0597
19,AAGTCTTA,-0.00416
20,GTAACAAC,0.0328
21,AACCAGTA,0.0562
22,ACCATAGA,-0.0556
23,CGTCGATC,0.0519
24,CTCATCGC,-0.0158
25,GTGCATGA,0.0161

row,Sequence,PBM E-score
1,CTAACAAA,0.111
2,TACACACA,0.0897
3,AAACTGAT,0.0541
4,GTGTGATA,0.203
5,AGGTTTAT,0.182
6,TACCCTAA,0.0145
7,GTGCAACA,-0.131
8,AGTAGAAA,0.131
9,CGATGTTA,0.2
10,CCTGTGCG,0.00483
11,CAACTTAA,0.0567
12,CGGGGAAA,0.162
13,TGCCATAA,0.158
14,GAAGTAAC,0.0537
15,CACTTACC,0.229
16,GACGTTAC,0.00232
17,GTCTGGAA,-0.00013
18,AAGGAGCG,0.00726
19,GCGACATA,0.0664
20,AGGGTACC,-0.263
21,ATGATCGA,0.0147
22,ACGGATCC,-0.0602
